Measured values published in PubChem BioAssay AID504444 (National Center for Advancing Translational Sciences (NCATS), 2011).
Among all 360,000 compounds or so, about 7,500 (2.1%) were called active. This list was built around the results that the source calls inconclusive (neither active nor inactive); the mix of calls is not that of the screen. Calls come from the whole dose curve; as a rule, active = well fitted inhibition curve with a large enough effect; inconclusive = small, poorly fitted or top-dose-only effect, or effect the other way; inactive = flat fitted curve, though single readings scatter. A potency beside an inconclusive call is a rough fit, not a confirmed value.

Test: Nrf2 qHTS screen for inhibitors; note: nearly all actives have a fitted effect of over 60% in size
Details: A549 ARE-Fluc reporter, luciferase luminescence, 18-24 h; activity change, negative = inhibition: at 46 µM (top of the series)
How it was run: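 Reporter: ARE-Fluc in A549. Exposure: 18-24 h, 37 °C, 5% CO2, 5% FBS OPTI-MEM. Readouts: fluorescent cytotoxicity (CellTiter-Fluor), then luminescent Nrf2 signal after BugLite.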
% is set by controls: 0 for no effect and ±100 for the full control effect; potency is the fitted concentration of half-maximal effect.

Structure (SMILES)	Potency	activity change, negative = inhibition
O=S(=O)(c1cccc(Cn2nnc(-c3ccccc3)n2)c1)N1CCOCC1	inconclusive: 16.4 µM [falling, single point]	–
Cc1ccc(Cn2ccc(NC(=O)c3cc(C(C)C)on3)n2)cc1	inconclusive: 9.2 µM [falling, partial curve, poor fit]	–
FC(F)(F)c1cccc(NC(=S)NC(c2ccccc2)c2ccccc2)c1	inconclusive: 29.1 µM [falling, single point]	–
COC(=O)c1cc(=O)n(Cc2ccc3c(c2)OCO3)c(=Nc2ccc(F)cc2)s1	–	inactive: -3.21%
COc1cc(NC(=O)CCc2c(C)nc3nc(C)nn3c2C)cc(OC)c1	inconclusive: 11.6 µM [falling, single point]	–
COc1cccc(C#Cc2c(C=O)n(C)c3ccccc23)c1	inconclusive: 29.1 µM [falling, single point]	–
CCN1CCN(S(=O)(=O)c2cc(OCC(=O)NC3CCCCC3)c(C)cc2Cl)CC1	active: 4.11 µM	–
Cc1noc(C(=O)N2CCN(c3ccc(F)cc3)CC2)c1Cl	inconclusive: 0.731 µM [falling, partial curve, poor fit]	–
COc1cc(OC)cc(-c2nnc(SCC(=O)N(Cc3ccccc3)C(C)(C)C)o2)c1	inconclusive: 29.1 µM [falling, single point]	–
CCn1nnc2cc(C(=O)NCC(c3ccccc3OC)N(C)C)ccc21 (stereo not given)	inconclusive: 16.4 µM [activator, single point]	–
CCc1ccc(S(=O)(=O)NCc2cn3ccsc3n2)s1	inconclusive: 0.184 µM [falling, full curve, poor fit]	–
COc1ccc(OC)c(CN2CCN(C(=O)c3ccc(NS(=O)(=O)c4cccc([N+](=O)[O-])c4)cc3)CC2)c1	inconclusive: 18.4 µM [falling, partial curve]	–
O=C(CN1CCN(c2nc(-c3ccc(F)cc3)cs2)CC1)Nc1ccc2c(c1)OCO2	inconclusive: 20.6 µM [falling, partial curve, poor fit]	–
OCCn1c(SCCOc2ccccc2F)nc2ccccc21	inconclusive: 7.31 µM [falling, single point]	–
O=C(Nc1ccccn1)C1CCN(S(=O)(=O)c2ccc3c(c2)OCCCO3)CC1	inconclusive: 20.6 µM [falling, single point]	–
Cc1ccc(-n2c(Cc3cccn3C)nnc2SCC(=O)N2CCc3ccccc32)cc1	inconclusive: 23.1 µM [falling, single point]	–
C=CC[C@H](CC(=O)NCCO)C(=O)NC[C@@H](OC(=O)[C@@H](CC=C)Cc1ccc(F)cc1)c1ccccc1	–	inactive: -13.6%
O=[N+]([O-])c1ccc2nc(CN3CCCCC3)[nH]c2c1	inconclusive: 23.1 µM [activator, partial curve, poor fit]	–
CSc1ccc(-c2nc(CSCC(=O)N3CCOCC3)c(C)o2)cc1	inconclusive: 18.4 µM [falling, single point]	–
Cc1ccccc1-n1c(SCC(=O)N/N=C/C=C/c2ccccc2[N+](=O)[O-])nc2ccccc2c1=O	inconclusive: 2.06 µM [falling, partial curve, poor fit]	–

Filtered by structure: the compounds so far with two or more sulfur atoms
Structure (SMILES)	Potency	activity change, negative = inhibition
CCc1ccc(S(=O)(=O)NCc2cn3ccsc3n2)s1	inconclusive: 0.184 µM [falling, full curve, poor fit]	–
CSc1ccc(-c2nc(CSCC(=O)N3CCOCC3)c(C)o2)cc1	inconclusive: 18.4 µM [falling, single point]	–

The list continues.

Structure (SMILES)	Potency	activity change, negative = inhibition
O=C(C1=C(O)C(=O)N(c2nccs2)C1c1ccccc1)c1cc2ccccc2o1 (stereo not given)	inconclusive: 29.1 µM [falling, single point]	–
c1ccc(Nc2nc(-c3ccncc3)cs2)cc1	inconclusive: 18.4 µM [activator, partial curve]	–
CN(C)S(=O)(=O)Oc1ccc(C(=O)Nc2ccc([N+](=O)[O-])cc2)cc1	inconclusive: 7.31 µM [falling, partial curve, poor fit]	–
O=C(c1cc(COc2ccc(F)cc2Cl)on1)N1CCSCC1	inconclusive: 7.31 µM [activator, partial curve, poor fit]	–
CC(=O)NCc1ccc(C(=O)CSc2nnc(-c3ccncc3)n2Cc2ccccc2)o1	–	inactive: 6.34%
Fc1ccc(-c2noc3ncnc(NCC4CCN(Cc5ccc(Cl)cc5)CC4)c23)cc1	–	inactive: -2.93%
Cc1nc2ccc(-c3nc4ccccc4o3)cc2[nH]1	inconclusive: 8.2 µM [activator, partial curve]	–
O=C(Nc1nnc(Cc2ccc(Cl)cc2)s1)c1ccco1	inconclusive: 29.1 µM [activator, single point]	–
COc1ccccc1C(=O)NCCc1c(C)[nH]c2c(C)ccc(F)c12	inconclusive: 9.2 µM [falling, partial curve]	–
COc1cc(-n2c(C)nc3cccnc32)c(Cl)cc1C(=O)O	inconclusive: 29.1 µM [activator, single point]	–
Cc1c(C(=O)N2CCN(C(=O)c3ccco3)CC2)oc2c(Cl)cccc12	inconclusive: 18.4 µM [falling, partial curve]	–
CCOc1ccc(CCN2C(=S)N([C@@H](CC(C)C)CN3CCCC3CN3C(=S)NC[C@@H]3Cc3ccc(O)cc3)C[C@@H]2CC(C)C)cc1 (stereo not given in full)	inconclusive: 29.1 µM [falling, single point]	–
C/C(=C\c1cccc(Cl)c1Cl)C(=O)c1c(C)cc(C)[nH]c1=O	inconclusive: 0.103 µM [falling, full curve, poor fit]	–
COc1ccc(C2=CC(c3ccc(F)cc3)n3nnnc3N2)cc1 (stereo not given)	–	inactive: 20.9%
CN(C(=S)NC1CCCCC1)C1(c2ccccc2Cl)CCCCC1=O (stereo not given)	inconclusive: 29.1 µM [activator, single point]	–
O=C1c2ccccc2C(=O)N1CCOc1ccc(F)cc1	inconclusive: 20.6 µM [activator, partial curve]	–
O=C(Nc1ccc2c(c1)OCO2)N1CCN(c2ncc(C(F)(F)F)cc2Cl)CC1	active: 9.2 µM	–
CCc1cccc(C)c1NC(=S)NCC1CCN(c2ccc(OC)cc2)C1 (stereo not given)	inconclusive: 10.3 µM [falling, partial curve]	–
OCc1cn(-c2ccccc2)nc1-c1ccc(Br)cc1	inconclusive: 23.1 µM [activator, single point]	–
COc1ccc(/C=C/c2cc[n+](C(=O)Cc3ccccc3)cc2)cc1	inconclusive: 16.4 µM [falling, single point]	–
